Measured values: publication PMC10501989
These are yes or no findings as the source states them, for the method shown. In cells and extracts the contact can be indirect. A yes stands for co-enrichment or nearness to the bait. Other partners may have been found.

The chains behind the UniProt entries cited, without tags or fusion partners.
UniProt Q3TKT4: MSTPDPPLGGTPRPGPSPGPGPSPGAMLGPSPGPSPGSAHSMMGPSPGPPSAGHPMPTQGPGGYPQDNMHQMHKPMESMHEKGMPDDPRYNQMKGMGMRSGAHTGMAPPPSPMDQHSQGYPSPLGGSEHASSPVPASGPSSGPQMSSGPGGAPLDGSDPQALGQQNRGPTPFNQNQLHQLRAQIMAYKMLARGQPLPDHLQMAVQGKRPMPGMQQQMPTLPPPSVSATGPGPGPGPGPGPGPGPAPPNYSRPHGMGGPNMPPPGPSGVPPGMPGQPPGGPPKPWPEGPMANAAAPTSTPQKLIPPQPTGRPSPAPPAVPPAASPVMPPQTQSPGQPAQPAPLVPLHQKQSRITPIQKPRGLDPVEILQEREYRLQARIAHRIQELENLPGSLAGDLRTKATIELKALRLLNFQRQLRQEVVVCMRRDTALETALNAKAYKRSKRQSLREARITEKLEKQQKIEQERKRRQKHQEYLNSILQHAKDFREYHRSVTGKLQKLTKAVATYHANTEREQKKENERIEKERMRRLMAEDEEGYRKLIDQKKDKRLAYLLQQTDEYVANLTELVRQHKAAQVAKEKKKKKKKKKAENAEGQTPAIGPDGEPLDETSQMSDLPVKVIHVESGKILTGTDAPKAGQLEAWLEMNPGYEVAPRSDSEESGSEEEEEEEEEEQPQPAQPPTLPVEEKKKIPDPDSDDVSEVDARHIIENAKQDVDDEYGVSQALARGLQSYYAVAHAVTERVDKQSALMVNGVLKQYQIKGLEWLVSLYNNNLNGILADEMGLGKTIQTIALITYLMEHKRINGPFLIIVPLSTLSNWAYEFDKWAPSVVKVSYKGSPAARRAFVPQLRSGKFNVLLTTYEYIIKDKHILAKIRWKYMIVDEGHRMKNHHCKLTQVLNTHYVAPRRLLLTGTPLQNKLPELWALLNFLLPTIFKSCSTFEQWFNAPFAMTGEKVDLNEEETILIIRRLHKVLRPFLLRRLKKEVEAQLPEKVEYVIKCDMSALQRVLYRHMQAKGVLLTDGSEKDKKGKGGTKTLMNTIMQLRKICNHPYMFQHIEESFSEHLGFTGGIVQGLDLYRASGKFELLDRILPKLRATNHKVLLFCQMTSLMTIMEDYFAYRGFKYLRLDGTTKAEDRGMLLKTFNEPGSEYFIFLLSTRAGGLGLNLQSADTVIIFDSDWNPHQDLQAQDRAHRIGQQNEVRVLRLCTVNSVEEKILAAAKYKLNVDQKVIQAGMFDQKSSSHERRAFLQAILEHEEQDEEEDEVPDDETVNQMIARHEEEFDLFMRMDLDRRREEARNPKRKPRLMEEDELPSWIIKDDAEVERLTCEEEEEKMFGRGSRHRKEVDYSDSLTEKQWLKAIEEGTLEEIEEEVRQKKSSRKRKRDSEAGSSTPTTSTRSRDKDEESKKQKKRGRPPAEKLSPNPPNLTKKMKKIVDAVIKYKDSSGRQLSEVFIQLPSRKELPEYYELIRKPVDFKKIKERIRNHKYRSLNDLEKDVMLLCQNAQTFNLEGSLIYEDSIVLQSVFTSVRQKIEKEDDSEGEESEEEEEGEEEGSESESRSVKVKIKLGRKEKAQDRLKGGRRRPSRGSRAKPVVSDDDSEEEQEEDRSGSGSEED
UniProt P23198: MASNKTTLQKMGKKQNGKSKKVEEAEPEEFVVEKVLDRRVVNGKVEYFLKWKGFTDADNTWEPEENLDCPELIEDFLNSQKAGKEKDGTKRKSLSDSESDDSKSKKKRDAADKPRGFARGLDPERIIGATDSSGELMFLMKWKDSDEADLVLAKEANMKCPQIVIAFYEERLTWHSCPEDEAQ

T1: activity-dependent neuroprotector homeobox protein (ADNP) (mouse (endogenous in Th2 cells)) (UniProt Q9Z103)
T1 sequence: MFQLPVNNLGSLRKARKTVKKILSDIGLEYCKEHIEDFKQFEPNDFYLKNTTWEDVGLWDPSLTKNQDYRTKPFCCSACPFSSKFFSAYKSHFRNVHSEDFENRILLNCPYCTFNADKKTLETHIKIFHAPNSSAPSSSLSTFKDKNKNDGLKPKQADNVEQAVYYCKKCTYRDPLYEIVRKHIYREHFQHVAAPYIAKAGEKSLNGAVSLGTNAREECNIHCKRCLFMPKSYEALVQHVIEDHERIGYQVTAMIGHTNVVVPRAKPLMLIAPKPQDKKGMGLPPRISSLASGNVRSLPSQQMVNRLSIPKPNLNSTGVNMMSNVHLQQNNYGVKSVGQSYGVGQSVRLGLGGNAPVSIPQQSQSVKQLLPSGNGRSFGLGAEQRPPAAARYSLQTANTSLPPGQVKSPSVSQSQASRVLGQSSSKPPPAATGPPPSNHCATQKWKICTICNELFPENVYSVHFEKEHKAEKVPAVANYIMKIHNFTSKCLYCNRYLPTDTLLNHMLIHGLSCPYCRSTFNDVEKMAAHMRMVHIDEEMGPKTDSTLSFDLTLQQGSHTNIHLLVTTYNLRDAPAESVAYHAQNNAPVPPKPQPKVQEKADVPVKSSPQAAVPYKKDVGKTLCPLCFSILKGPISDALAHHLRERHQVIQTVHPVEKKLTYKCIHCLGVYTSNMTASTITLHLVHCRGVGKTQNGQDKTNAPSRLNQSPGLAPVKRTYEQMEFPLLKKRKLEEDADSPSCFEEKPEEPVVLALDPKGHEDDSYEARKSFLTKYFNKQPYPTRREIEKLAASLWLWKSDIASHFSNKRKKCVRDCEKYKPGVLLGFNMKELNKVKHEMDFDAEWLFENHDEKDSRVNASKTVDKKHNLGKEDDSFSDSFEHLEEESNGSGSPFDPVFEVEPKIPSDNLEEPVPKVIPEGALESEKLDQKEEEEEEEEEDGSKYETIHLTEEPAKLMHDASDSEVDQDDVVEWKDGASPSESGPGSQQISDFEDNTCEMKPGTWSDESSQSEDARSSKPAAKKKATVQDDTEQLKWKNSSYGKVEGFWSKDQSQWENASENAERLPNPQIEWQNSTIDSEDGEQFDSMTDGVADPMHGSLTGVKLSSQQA

B1: CCCTC-binding factor (CTCF) (protein, UniProt Q61164 1-736)
chain: MEGEAVEAIVEESETFIKGKERKTYQRRREGGQEEDACHLPQNQTDGGEVVQDVNSSVQMVMMEQLDPTLLQMKTEVMEGTVAPEAEAAVDDTQIITLQVVNMEEQPINIGELQLVQVPVPVTVPVATTSVEELQGAYENEVSKEGLAESEPMICHTLPLPEGFQVVKVGANGEVETLEQGELPPQEDSSWQKDPDYQPPAKKTKKTKKSKLRYTEEGKDVDVSVYDFEEEQQEGLLSEVNAEKVVGNMKPPKPTKIKKKGVKKTFQCELCSYTCPRRSNLDRHMKSHTDERPHKCHLCGRAFRTVTLLRNHLNTHTGTRPHKCPDCDMAFVTSGELVRHRRYKHTHEKPFKCSMCDYASVEVSKLKRHIRSHTGERPFQCSLCSYASRDTYKLKRHMRTHSGEKPYECYICHARFTQSGTMKMHILQKHTENVAKFHCPHCDTVIARKSDLGVHLRKQHSYIEQGKKCRYCDAVFHERYALIQHQKSHKNEKRFKCDQCDYACRQERHMIMHKRTHTGEKPYACSHCDKTFRQKQLLDMHFKRYHDPNFVPAAFVCSKCGKTFTRRNTMARHADNCAGPDGVEGENGGETKKSKRGRKRKMRSKKEDSSDSEENAEPDLDDNEEEEEPAVEIEPEPEPQPQPPPPPQPVAPAPPPAKKRRGRPPGRTNQPKQNQPTAIIQVEDQNTGAIENIIVEVKKEPDAEPAEGEEEEAQAATTDAPNGDLTPEMILSMMDR

biological target: T1, activity-dependent neuroprotector homeobox protein (ADNP) (mouse (endogenous in Th2 cells)); experiment: affinity purification with mass spectrometry; anti-ADNP immunoprecipitation from Th2 cell lysate (antibody overnight at 4 °C, protein A/G Dynabeads), on-bead trypsin digestion, LC-MS/MS; compared with isotype control

binding, binds:
Brahma-related gene-1 (BRG1, encoded by Smarca4) (from UniProt Q3TKT4 1-1613)
HP1γ (CBX3) (from UniProt P23198 1-183)
B1
